Measurements published in PubChem BioAssay AID2517 (National Center for Advancing Translational Sciences (NCATS), 2012).
The campaign covered roughly 350,000 compounds. About 1,200 (0.34%) were called active. This list was built around the results that the source calls inconclusive (neither active nor inactive); the mix of calls is not that of the screen. Calls come from the whole dose curve; as a rule, active = well fitted inhibition curve with a large enough effect; inconclusive = small, poorly fitted or top-dose-only effect; inactive = no such curve, though single readings can be large or run the other way. Potencies of inconclusive entries are doubtful fits and often do not repeat.

The chains behind the UniProt entries cited, without tags or fusion partners.
UniProt P27695, whole entry, looked up: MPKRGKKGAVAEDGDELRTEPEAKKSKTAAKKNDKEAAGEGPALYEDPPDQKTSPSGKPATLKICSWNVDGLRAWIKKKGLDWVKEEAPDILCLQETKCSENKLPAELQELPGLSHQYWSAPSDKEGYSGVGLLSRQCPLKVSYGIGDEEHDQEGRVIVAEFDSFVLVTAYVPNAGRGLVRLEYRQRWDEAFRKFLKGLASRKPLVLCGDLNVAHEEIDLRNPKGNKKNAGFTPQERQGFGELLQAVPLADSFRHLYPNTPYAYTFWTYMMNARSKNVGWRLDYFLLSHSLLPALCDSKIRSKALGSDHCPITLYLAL

The compounds below were run against DNA repair nuclease/redox regulator APEX1 (Homo sapiens) (UniProt P27695) (assay: qHTS Assay for Inhibitors of the Human Apurinic/apyrimidinic Endonuclease 1 (APE1)). Conditions: recombinant APE1, TAMRA/BHQ-2 abasic DNA cleavage fluorescence; activity change, negative = inhibition: at 65.8 µM (top of the series).
How it was run: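 Step 1: APE1 (0.75 nM) with compound, 15 min RT. Step 2: add 50 nM fluorophore/quencher THF duplex. Step 3: three fluorescence reads 60 s apart (525/598 nm); read 3 minus read 1 = reaction progress.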
Note: nearly all actives have a fitted effect of over 55% in size.
Potency is the fitted concentration of half-maximal effect.
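Throughout, for activity change, negative = inhibition: plate controls were vehicle for no effect and reference inhibitor for full effect.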

| SMILES | Potency | activity change, negative = inhibition |
| --- | --- | --- |
| CCCCCCCCCCCCCCCC(=O)OC[C@H](O)[C@H]1OC(=O)C(O)=C1O | active: 8.91 µM |  |
| CC1(C)CC(NC(=O)C(C)(C)Oc2ccc(Cl)cc2)CC(C)(C)N1 |  | inconclusive: -2.36% [inhibitor] |
| CCn1c(C)c(C)c2cc(C(=O)NCCCN3CCCCCC3)ccc21 | inactive |  |
| CCOC(=O)C1CCN(S(=O)(=O)c2ccc(C(C)(C)C)cc2)CC1 | inconclusive: 10 µM [inhibitor, single point] |  |
| O=C(NCc1cccnc1)c1cc(-c2ccco2)on1 | inactive |  |
| Cc1ccccc1OCC(=O)Nc1ccc2oc(=O)ccc2c1 | inconclusive: 3.16 µM [inhibitor, single point] |  |
| Cc1nn(-c2cccc(C(F)(F)F)c2)c(Cl)c1/C=N/n1cnnc1 | inconclusive: 0.794 µM [inhibitor, full curve] |  |
| Cc1ccnc(SCc2cc(=O)c(OC(=O)c3ccc(Cl)c([N+](=O)[O-])c3)co2)n1 | inconclusive: 31.6 µM [inhibitor, single point] |  |
| COc1ccc2c(n1)Sc1nc3ccccc3nc1N2 | inconclusive: 3.16 µM [inhibitor, single point] |  |
| COc1ccc(-c2cnc(-c3cccnc3)o2)cc1 | inactive |  |
| O=C(CN1CCN(c2ccc(O)cc2)CC1)NC(=O)NCc1ccco1 | inconclusive: 35.5 µM [inhibitor, single point] |  |
| COC(=O)C/C=C/C(C)C(OC)c1ccccc1Br (centres undefined) | inconclusive: 8.91 µM [inhibitor, single point] |  |
| CCOC(=O)C1=C(SCC(=O)Nc2ccccc2)NC(=O)C(C#N)C12CCCCC2 (centres undefined) | inconclusive: 0.0251 µM [inhibitor, full curve, poor fit] |  |
| CCn1c(SC(C)C(=O)O)nc2sc3c(c2c1=O)CCC3 (centres undefined) | inconclusive: 20 µM [inhibitor, partial curve] |  |
| CCOC(=O)C1CCCN(C(=O)Nc2c(-c3ccccc3)noc2C)C1 (centres undefined) | inconclusive: 3.98 µM [inhibitor, single point] |  |
| C#CCOCCOCCOCCNc1nc(N2CCN(C(=O)CCCCCCCCCCNC(=O)[C@@H](CCSC)n3cc(CCO)nn3)CC2)nc(N2CCN(C(=O)CCCCCCCCCCNC(=O)[C@H](CCCN=C(N)N)n3cc(C[C@@H](C)CC)nn3)CC2)n1 | inconclusive: 29.9 µM [inhibitor, single point] |  |
| O=C(N/N=C/c1ccc(F)cc1)c1ccc(Br)cc1 | inconclusive: 44.7 µM [inhibitor, single point] |  |
| O=C(NC1CCSC1=O)c1cccc(C(=O)NC2CCSC2=O)c1 (centres undefined) | inconclusive: 35.5 µM [inhibitor, partial curve] |  |
| CNC(=S)N/N=C/c1cc(Br)cc(Br)c1O | inactive |  |
| Cc1cccc(C)c1OCCOC(=O)c1n[nH]c2ccccc12 | inconclusive: 0.0112 µM [inhibitor, full curve, poor fit] |  |
| Cc1ccc2[nH]c(=O)c3cc(C(=O)N4CCN(C(=O)c5ccco5)CC4)sc3c2c1 | inconclusive: 15.8 µM [inhibitor, single point] |  |
| C(=N\NC1=Nc2cccc3cccc1c23)/c1ccccn1 | inconclusive: 56.2 µM [inhibitor, partial curve, poor fit] |  |
| COc1ccc(-c2cc(C(=O)NCc3cn(C)nc3C)c3ccccc3n2)cc1OC | inconclusive: 0.0398 µM [inhibitor, partial curve] |  |

| SMILES | Potency | activity change, negative = inhibition |
| --- | --- | --- |
| COc1ccc(-c2cnc(SCC(=O)Nc3ccc4c(c3)OCO4)n2Cc2ccco2)cc1 | inconclusive: 10 µM [inhibitor, partial curve] |  |
| O=C(CN1CCN(C2CCCCC2)CC1)c1ccc2cc[nH]c2c1 | inconclusive: 0.891 µM [inhibitor, single point] |  |
| OCCCCNCc1ccc(OCc2ccc(Cl)cc2)cc1 | inconclusive: 35.5 µM [inhibitor, single point] |  |
| Cc1cc(-c2ccco2)n(CC(=O)O)n1 | inconclusive: 28.2 µM [inhibitor, partial curve] |  |
| CCOC(=O)c1sc(NC(=O)CSc2nc3ccccc3o2)c(C(=O)OCC)c1C | inactive |  |
| COc1ccc(/C=N/NC(=O)c2cc(OC)c(OC)c(OC)c2)cc1CN1CCc2cc(OC)c(OC)cc2C1C (centres undefined) | inconclusive: 20 µM [inhibitor, partial curve, poor fit] |  |
| COc1ccc(NC2CCCN(C(=O)CCN3CCCO3)C2)cc1 (centres undefined) | inactive |  |
| Cc1cc([N+](=O)[O-])c(C)cc1-c1ccc(/C=N/n2cnnc2)o1 | inconclusive: 21.2 µM [inhibitor, single point] |  |
| COc1ccc(-n2c(C)ccc2-c2ccccc2)cn1 | inactive |  |
| Cc1ccc(-c2csc(/C(C#N)=C/Nc3ccccc3SC(F)(F)F)n2)cc1 | inconclusive: 39.8 µM [inhibitor, single point] |  |
| Cc1ccc(/C=c2/sc3nnc(-c4ccccc4Cl)n3c2=O)o1 | inconclusive: 35.5 µM [inhibitor, partial curve] |  |
| COc1ccccc1NC(=O)C(=O)/C=C(\O)c1ccccc1 | inconclusive: 11.2 µM [inhibitor, partial curve, poor fit] |  |
| Cc1ccc(C)c(N2CCN(C(=O)CN3C(=S)NC(C)(C)CC3C)CC2)c1 (centres undefined) | inactive |  |
| N/C(=N\OC(=O)c1ccco1)c1ccc(Cl)cc1 | inconclusive: 44.7 µM [inhibitor, single point] |  |
| COc1ccc(OC)c2c1sc(=NC(=O)CN1C(=O)CCC1=O)n2C | inconclusive: 39.8 µM [inhibitor, single point] |  |
| CCOC(=O)c1ccc(NC(=S)N(Cc2cccnc2)Cc2ccco2)cc1 | inconclusive: 22.4 µM [inhibitor, single point] |  |
| CC(C)C(NS(=O)(=O)c1cccc(C(F)(F)F)c1)C(=O)O (centres undefined) | inconclusive: 44.7 µM [inhibitor, single point] |  |
| COc1cccc(/C=C2/C(=O)NN(c3ccc(Br)cc3)C2=O)c1O | inactive |  |
| CCc1ccc(-c2csc(NC(=O)C3CC(=O)N(c4ccc5c(c4)OCCO5)C3)n2)cc1 (centres undefined) | inconclusive: 7.94 µM [inhibitor, partial curve] |  |
| Cc1nn(C)cc1CNC(=O)Nc1cccc(Cl)c1 | inconclusive: 2.82 µM [inhibitor, partial curve] |  |
| Cc1cc(/C=C2\C(=N)N3N=C(CC(=O)N4CCOCC4)SC3=NC2=O)c(C)n1Cc1ccccc1 | inactive |  |
| CC(=O)Oc1ccc(/C=C2/CCc3ccccc3C2=O)cc1 | inconclusive: 39.8 µM [inhibitor, single point] |  |
| C=CCN1C(=O)S/C(=C/c2ccsc2)C1=O | inconclusive: 0.0398 µM [inhibitor, full curve] |  |

3 entries from above, arranged by formula weight, ascending:

| SMILES | Potency | activity change, negative = inhibition |
| --- | --- | --- |
| O=C(NCc1cccnc1)c1cc(-c2ccco2)on1 | inactive |  |
| CCc1ccc(-c2csc(NC(=O)C3CC(=O)N(c4ccc5c(c4)OCCO5)C3)n2)cc1 (centres undefined) | inconclusive: 7.94 µM [inhibitor, partial curve] |  |
| C#CCOCCOCCOCCNc1nc(N2CCN(C(=O)CCCCCCCCCCNC(=O)[C@@H](CCSC)n3cc(CCO)nn3)CC2)nc(N2CCN(C(=O)CCCCCCCCCCNC(=O)[C@H](CCCN=C(N)N)n3cc(C[C@@H](C)CC)nn3)CC2)n1 | inconclusive: 29.9 µM [inhibitor, single point] |  |

Later entries:

| SMILES | Potency | activity change, negative = inhibition |
| --- | --- | --- |
| Cc1ccc(S(=O)(=O)N2c3ccc(S(N)(=O)=O)cc3CC2C)cc1 (centres undefined) | inconclusive: 0.199 µM [inhibitor, full curve] |  |
| CN(C)c1ccc(N/C=C/C(=O)C(C)(C)C)cc1 | inactive |  |
| O=c1c2cccc3c2c(nn1CN1CCOCC1)-c1ccccc1-3 | inconclusive: 7.08 µM [inhibitor, full curve, poor fit] |  |
| CC(=O)C1C(c2ccc(C)cc2)c2c(noc2C)CC1(C)O (centres undefined) | inconclusive: 3.98 µM [inhibitor, partial curve] |  |
| COc1ccc(CC(=O)Oc2cc(C)[nH]c(=O)c2[N+](=O)[O-])cc1 | inconclusive: 2.82 µM [inhibitor, partial curve] |  |
| O=c1nc(/C=C/c2ccc(O)c(O)c2)oc2ccccc12 | inconclusive: 25.1 µM [inhibitor, partial curve] |  |
| Cc1cc(C)c(OC2(c3ccccc3)OC(=O)c3ccccc32)c(C)c1 (centres undefined) | inconclusive: 3.98 µM [inhibitor, partial curve] |  |
| CC(C)=CC(=O)Nc1nnc(C)s1 | inactive |  |
| Cc1cccc(OCC(=O)NC(Cc2ccccc2)C(=O)O)c1 (centres undefined) | inactive |  |
| CC(O)(c1ccc(Cl)cc1)c1ccc(Cl)cc1 | inactive |  |
| C[C@H]1c2cccc(O)c2C(O)=C2C(=O)[C@]3(O)C(O)=C(C(N)=O)C(=O)C(N(C)C)[C@@H]3[C@@H](O)C21 (some centres undefined) | inactive |  |
| O=c1c2nc(Br)n([C@@H]3O[C@@H]4CO[P@@](O)(=S)O[C@H]4[C@H]3O)c2nc2[nH]c(-c3ccccc3)cn12 | active: 12.6 µM |  |
| C=CCc1c(C)nc(SC)nc1Nc1ccc(C(C)=O)cc1 | inconclusive: 44.7 µM [inhibitor, single point] |  |
| CCCCCn1c(=O)c2ccccc2n2c(=S)[nH]nc12 | inactive |  |
| CCOc1ccc(C=C2SC(=O)N(CCN)C2=O)cc1 | inactive |  |
| Cc1ccc(/C=c2\sc3nc(-c4cccs4)nn3c2=O)o1 | inconclusive: 22.4 µM [inhibitor, partial curve] |  |
| OCCNc1nc2ccccc2nc1NCCO | inconclusive: 7.94 µM [inhibitor, single point] |  |
| COc1ccc(N2CCC(CNC(=S)Nc3c(C)cccc3C)C2)cc1 (centres undefined) | inconclusive: 8.91 µM [inhibitor, single point] |  |
| COCCNC(=O)C(OC(=O)c1ccco1)c1ccccc1Cl (centres undefined) | inactive |  |
| CCOC(=O)N1CCc2c(sc(N)c2C#N)C1 | inconclusive: 7.08 µM [inhibitor, single point] |  |
| O=C1C(=O)c2ccccc2C(O)=C1c1cccc([N+](=O)[O-])c1 | inconclusive: 44.7 µM [inhibitor, single point] |  |
| O=C(CNC(=O)c1ccncc1)N/N=C/c1ccc(O)cc1O | inactive |  |
| CCOC(=O)c1cc(C(=O)OCC)c(=O)[nH]c1C | inconclusive: 1 µM [inhibitor, partial curve, poor fit] |  |

Compounds shown so far containing a tert-butyl group:

| SMILES | Potency | activity change, negative = inhibition |
| --- | --- | --- |
| CCOC(=O)C1CCN(S(=O)(=O)c2ccc(C(C)(C)C)cc2)CC1 | inconclusive: 10 µM [inhibitor, single point] |  |
| CN(C)c1ccc(N/C=C/C(=O)C(C)(C)C)cc1 | inactive |  |
